# Measurements published in PubChem BioAssay AID1347076 (National Center for Advancing Translational Sciences (NCATS), 2019).
# Among all 400,000 compounds or so, about 13,000 (3.2%) were called active. Inconclusive means that the source gave no clear call. Such entries were picked first, then a sample of the others. The call rests on the fitted dose curve; in most records, active means well fitted cell-killing curve with a large enough effect; inconclusive means small, poorly fitted or top-dose-only effect, or effect the other way; inactive means flat fitted curve, though single readings scatter. Potencies of inconclusive entries are doubtful fits and often do not repeat.
# Test: qHTS assay for MDR1-selective chemotherapeutics: Primary screen using the drug-selected MDR subline cells KB-V1; further: nearly all actives have a fitted effect of over 60% in size
# Conditions: KB-V1 MDR cells viability, CellTiter-Glo, 72 h; series mostly up to 46.1 µM
# Outline: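 Drug-selected KB-V1 cells, grown in DMEM lacking phenol red with 10% FBS, receive compound titrations; after three days at 37 degrees C, surviving cell ATP is quantified by CellTiter-Glo luminescence and responses normalized and curve-fitted.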
# Potency means the concentration at half of the fitted maximal effect.
row,SMILES,Potency
1,O=C(N/C(=C/c1ccccc1Cl)C(=O)N1CCOCC1)c1ccccc1,inactive
2,CCCn1c(SCC(=O)Nc2cc(S(=O)(=O)N3CCCCC3)ccc2C)n[nH]c1=O,"inconclusive: 6.51 µM [rising, full curve]"
3,CCOC(=O)C1CCCN(C(=O)C2CCN(S(=O)(=O)c3ccc4ccccc4c3)CC2)C1 (stereo not given),"inconclusive: 9.2 µM [cytotoxic, partial curve, poor fit]"
4,Cc1cc(NC(=O)CSc2nnc3c4c(C)c(C)sc4ncn23)no1,"inconclusive: 4.61 µM [cytotoxic, full curve, poor fit]"
5,CCCc1cnc2c(c1SCC(=O)Nc1ccccc1OCC)c(=O)n(C)c(=O)n2C,inactive
6,CCn1ncc(CN2CCN(Cc3cccc(OC)c3)C(CCO)C2)c1C (stereo not given),inactive
7,Cc1nc2ccccc2n1CCOc1ccc(F)cc1,"inconclusive: 9.2 µM [cytotoxic, partial curve]"
8,N#C/C(=C\c1ccc(-c2ccccc2[N+](=O)[O-])o1)C(N)=O,"inconclusive: 29.1 µM [cytotoxic, single point]"
9,CCOc1ccc(C(=O)C2CCN(CC(=O)Nc3ccccc3N3CCOCC3)CC2)cc1,"inconclusive: 25.9 µM [cytotoxic, single point]"
10,COC(=O)c1cnn(-c2nc(OC)cc(OC)n2)c1C,active: 16.4 µM
11,O=C(/C=C/Nc1cccc(C(F)(F)F)c1)c1ccc(Oc2ncccn2)cc1,active: 20.6 µM
12,CCN(C(=O)CSc1nnc(COc2cccc(C)c2)o1)c1nc(C)cs1,"inconclusive: 3.66 µM [rising, partial curve, poor fit]"
13,CCS(=O)(=O)N1CCCc2cc(C(=O)Nc3cccc(C(C)=O)c3)ccc21,"inconclusive: 20.6 µM [cytotoxic, single point]"
14,COc1ccc(-c2nc3ccccn3c2NCc2ccc3c(c2)OCO3)cc1,"inconclusive: 25.1 µM [cytotoxic, single point]"
15,Nc1cc(Cl)ccc1C(=O)OCC(=O)N1CCCCCC1,inactive
16,COc1ccc(CS(=O)/C(Cl)=C(/Cl)C(=O)Nc2ccc(OC)nc2)cc1 (stereo not given),"inconclusive: 0.0046 µM [cytotoxic, full curve, poor fit]"
17,O=C(Nc1nc(-c2ccccn2)cs1)c1ccco1,inactive
18,Cn1c(SCC(=O)N/N=C/c2ccccn2)nnc1-c1ccccc1,inactive
19,O=[n+]1cc(-c2ccccc2)n([O-])c2c1CCCCC2,"inconclusive: 3.66 µM [rising, partial curve]"
20,COc1ccccc1CNC(=O)C1CCN(S(=O)(=O)c2ccc3nc4c(c(C(=O)O)c3c2)CCCC4)CC1,"inconclusive: 29.1 µM [rising, single point]"

# From compound 18 up to 19, as listed above:
row,SMILES,Potency
18,Cn1c(SCC(=O)N/N=C/c2ccccn2)nnc1-c1ccccc1,inactive
19,O=[n+]1cc(-c2ccccc2)n([O-])c2c1CCCCC2,"inconclusive: 3.66 µM [rising, partial curve]"
